According to paper PMC10709558:
Results are given in words; binding and its absence hold for the method and conditions named. Binding seen in cells or lysates may run through a third protein. Some entries that bind do so weakly or less than the wild type.

Amino acid sequences for entries named in this document (tags omitted). A change or cut given only in a name is not applied to a line headed by its entry.
UniProt P05556: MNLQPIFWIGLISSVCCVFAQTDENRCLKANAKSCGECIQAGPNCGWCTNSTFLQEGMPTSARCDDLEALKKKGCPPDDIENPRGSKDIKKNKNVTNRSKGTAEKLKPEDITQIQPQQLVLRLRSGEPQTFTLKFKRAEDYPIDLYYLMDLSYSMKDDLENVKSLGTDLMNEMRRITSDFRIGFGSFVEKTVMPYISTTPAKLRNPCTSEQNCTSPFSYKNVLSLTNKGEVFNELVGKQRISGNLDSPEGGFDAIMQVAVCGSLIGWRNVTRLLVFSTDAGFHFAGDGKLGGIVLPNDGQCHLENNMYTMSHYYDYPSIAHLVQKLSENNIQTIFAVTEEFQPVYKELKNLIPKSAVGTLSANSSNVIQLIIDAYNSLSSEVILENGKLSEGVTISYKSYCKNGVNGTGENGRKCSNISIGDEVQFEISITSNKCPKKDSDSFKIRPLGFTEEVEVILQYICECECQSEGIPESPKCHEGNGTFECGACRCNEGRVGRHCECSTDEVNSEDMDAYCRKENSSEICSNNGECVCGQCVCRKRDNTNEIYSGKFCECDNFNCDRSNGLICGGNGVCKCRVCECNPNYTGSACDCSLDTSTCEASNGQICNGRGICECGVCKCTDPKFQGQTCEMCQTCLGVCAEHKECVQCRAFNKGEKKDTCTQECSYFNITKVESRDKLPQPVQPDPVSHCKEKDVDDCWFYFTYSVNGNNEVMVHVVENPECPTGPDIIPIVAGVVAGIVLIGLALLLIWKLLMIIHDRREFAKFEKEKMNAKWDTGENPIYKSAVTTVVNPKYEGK

Target: T1, Kinesin Family Member 3B (human (endogenous in ESCC cells)) (UniProt O15066)
T1 sequence: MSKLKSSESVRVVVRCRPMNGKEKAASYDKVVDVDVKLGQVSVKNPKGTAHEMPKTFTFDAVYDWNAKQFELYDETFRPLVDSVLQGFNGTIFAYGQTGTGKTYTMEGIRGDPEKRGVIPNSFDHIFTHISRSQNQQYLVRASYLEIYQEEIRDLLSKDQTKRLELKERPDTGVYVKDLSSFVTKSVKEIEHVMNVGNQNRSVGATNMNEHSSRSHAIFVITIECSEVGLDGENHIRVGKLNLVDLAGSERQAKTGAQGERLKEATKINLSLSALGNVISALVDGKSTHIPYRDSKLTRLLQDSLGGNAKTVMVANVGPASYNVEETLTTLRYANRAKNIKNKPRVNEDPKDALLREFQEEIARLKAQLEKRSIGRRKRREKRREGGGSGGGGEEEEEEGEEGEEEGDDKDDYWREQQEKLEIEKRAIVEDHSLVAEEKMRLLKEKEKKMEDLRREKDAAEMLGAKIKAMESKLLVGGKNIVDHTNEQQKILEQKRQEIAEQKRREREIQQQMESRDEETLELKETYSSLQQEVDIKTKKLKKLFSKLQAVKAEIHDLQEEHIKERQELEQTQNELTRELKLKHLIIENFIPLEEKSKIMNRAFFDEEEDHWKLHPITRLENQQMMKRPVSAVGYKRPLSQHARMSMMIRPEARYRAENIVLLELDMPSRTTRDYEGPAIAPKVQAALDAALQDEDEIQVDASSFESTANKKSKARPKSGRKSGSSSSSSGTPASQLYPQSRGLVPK
Experiment: co-IP; IP in ESCC cell lysates, detected by Western blot

## Integrin-beta1 (from UniProt P05556 21-798) (receptor)
  binding: binds
